Results: PMC6548137
Results are given in words; binding and its absence hold for the method and conditions named. Binding calls can cover weak binding; strength is not graded here. For some assays here: Sequences can lack the tags named with a protein.

The chains behind the UniProt entries cited, without tags or fusion partners. Where a name states a change or a piece, a line headed by the entry shows the natural chain unless it says otherwise.
UniProt P63241: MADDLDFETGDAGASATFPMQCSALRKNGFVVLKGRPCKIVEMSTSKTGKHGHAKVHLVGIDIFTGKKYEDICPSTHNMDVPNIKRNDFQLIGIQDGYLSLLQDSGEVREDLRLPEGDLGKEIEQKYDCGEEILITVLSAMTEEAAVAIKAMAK
UniProt Q9ESJ0: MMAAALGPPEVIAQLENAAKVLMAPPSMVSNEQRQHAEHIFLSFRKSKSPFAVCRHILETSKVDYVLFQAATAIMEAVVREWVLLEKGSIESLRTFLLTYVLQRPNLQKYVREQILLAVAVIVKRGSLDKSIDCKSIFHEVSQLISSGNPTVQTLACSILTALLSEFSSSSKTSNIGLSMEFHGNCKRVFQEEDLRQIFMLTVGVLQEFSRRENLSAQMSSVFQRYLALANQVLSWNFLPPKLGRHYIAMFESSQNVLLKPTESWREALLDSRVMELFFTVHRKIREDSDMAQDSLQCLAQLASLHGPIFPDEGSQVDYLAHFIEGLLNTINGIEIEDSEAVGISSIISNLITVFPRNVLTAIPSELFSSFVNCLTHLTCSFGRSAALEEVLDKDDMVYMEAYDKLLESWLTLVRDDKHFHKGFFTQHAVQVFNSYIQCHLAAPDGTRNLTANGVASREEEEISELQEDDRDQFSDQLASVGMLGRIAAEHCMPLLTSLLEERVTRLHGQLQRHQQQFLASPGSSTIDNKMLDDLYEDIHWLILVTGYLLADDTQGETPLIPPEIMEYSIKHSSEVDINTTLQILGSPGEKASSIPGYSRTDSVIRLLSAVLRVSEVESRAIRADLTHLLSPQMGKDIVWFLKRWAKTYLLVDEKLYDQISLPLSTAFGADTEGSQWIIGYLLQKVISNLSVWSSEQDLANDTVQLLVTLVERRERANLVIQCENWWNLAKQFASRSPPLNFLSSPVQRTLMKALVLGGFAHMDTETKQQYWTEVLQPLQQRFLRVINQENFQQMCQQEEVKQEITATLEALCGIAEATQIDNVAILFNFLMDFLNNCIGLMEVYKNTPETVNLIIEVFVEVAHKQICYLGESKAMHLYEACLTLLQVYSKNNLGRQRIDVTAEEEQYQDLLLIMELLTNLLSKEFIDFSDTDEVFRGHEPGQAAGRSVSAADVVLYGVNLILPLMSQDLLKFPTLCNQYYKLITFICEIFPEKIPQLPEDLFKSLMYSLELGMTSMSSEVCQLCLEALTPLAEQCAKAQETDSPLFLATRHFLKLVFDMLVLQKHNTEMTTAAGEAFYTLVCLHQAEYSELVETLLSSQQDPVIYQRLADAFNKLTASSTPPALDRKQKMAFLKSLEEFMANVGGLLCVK

Key:
[1] = target: ZZ-bdSUMO-tagged eIF5A H51A (not stated (human or S. cerevisiae eIF5A made)) (UniProt P63241); test: pull-down; 1 µM NTR and RanGTP with 0.75 µM ZZ-bdSUMO-tagged eIF5A wild type or mutants; 20 mM Tris/HCl pH 7.7, 100 mM NaCl (legend: 50 mM NaCl), 2 mM MgOAc, 2 mM DTT; retrieved via tagged eIF5A by anti-Protein A beads, eluted by bdSENP1 protease, SDS-PAGE and Coomassie; both purified
[2] = target: ZZ-bdSUMO-tagged eIF5A K50A (not stated (human or S. cerevisiae eIF5A made)) (UniProt P63241); test: as above
[3] = target: ZZ-bdSUMO-tagged eIF5A R62E (not stated (human or S. cerevisiae eIF5A made)) (UniProt P63241); test: as above
[4] = target: ZZ-bdSUMO-tagged eIF5A S75R (not stated (human or S. cerevisiae eIF5A made)) (UniProt P63241); test: as above
[5] = target: ZZ-bdSUMO-tagged eIF5A wild type (not stated (human or S. cerevisiae eIF5A made)) (UniProt P63241); test: as above
[6] = target: ZZ-bdSUMO-tagged eIF5A E42R (not stated (human or S. cerevisiae eIF5A made)) (UniProt P63241); test: as above
[7] = target: T1, H14-ZZ-bdSUMO-tagged Pdr6 (S. cerevisiae) (UniProt P32767); test: pull-down; 1 µM H14-ZZ-bdSUMO-tagged NTR with 2 µM human or yeast eIF5A in the presence of 2 µM RanGTP; retrieved via the tagged NTR by anti-Protein A beads, eluted by bdSENP1 protease, SDS-PAGE and Coomassie; both purified
T1 sequence: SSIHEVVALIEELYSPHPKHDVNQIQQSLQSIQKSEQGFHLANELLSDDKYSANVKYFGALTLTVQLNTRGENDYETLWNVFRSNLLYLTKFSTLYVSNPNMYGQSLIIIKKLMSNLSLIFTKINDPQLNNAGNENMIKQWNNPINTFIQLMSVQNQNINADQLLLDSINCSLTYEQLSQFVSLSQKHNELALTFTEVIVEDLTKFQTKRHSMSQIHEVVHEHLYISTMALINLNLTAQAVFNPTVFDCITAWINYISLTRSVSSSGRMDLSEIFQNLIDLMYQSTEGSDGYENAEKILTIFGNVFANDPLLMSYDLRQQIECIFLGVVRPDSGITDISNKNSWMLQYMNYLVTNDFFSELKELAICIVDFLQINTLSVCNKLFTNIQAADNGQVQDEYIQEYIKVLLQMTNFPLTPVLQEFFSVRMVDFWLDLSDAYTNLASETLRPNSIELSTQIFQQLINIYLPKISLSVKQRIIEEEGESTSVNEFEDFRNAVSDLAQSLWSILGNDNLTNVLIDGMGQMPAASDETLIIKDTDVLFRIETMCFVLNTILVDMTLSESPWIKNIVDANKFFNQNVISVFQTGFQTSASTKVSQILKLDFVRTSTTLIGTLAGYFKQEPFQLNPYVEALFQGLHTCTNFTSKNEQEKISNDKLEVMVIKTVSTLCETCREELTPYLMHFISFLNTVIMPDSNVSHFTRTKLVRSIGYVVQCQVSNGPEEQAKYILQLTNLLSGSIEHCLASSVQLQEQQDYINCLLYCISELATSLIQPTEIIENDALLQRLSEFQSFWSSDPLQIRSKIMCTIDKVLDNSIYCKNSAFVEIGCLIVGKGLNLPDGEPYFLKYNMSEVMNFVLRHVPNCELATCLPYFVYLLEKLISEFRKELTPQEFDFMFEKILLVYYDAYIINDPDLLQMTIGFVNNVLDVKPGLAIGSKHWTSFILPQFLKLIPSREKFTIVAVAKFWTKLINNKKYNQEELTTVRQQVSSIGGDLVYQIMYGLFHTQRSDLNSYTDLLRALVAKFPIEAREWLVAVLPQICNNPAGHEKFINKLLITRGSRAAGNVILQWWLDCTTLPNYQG

[8] = target: T2, Pdr6/Kap122 (S. cerevisiae), full length, tag removed (S. cerevisiae) (UniProt P32767); test: crystal structure; RanGTP•Pdr6•eIF5A, 18°C, microseeding, 100 mM sodium acetate pH 5.3, 30% PEG 300; both purified
T2 sequence: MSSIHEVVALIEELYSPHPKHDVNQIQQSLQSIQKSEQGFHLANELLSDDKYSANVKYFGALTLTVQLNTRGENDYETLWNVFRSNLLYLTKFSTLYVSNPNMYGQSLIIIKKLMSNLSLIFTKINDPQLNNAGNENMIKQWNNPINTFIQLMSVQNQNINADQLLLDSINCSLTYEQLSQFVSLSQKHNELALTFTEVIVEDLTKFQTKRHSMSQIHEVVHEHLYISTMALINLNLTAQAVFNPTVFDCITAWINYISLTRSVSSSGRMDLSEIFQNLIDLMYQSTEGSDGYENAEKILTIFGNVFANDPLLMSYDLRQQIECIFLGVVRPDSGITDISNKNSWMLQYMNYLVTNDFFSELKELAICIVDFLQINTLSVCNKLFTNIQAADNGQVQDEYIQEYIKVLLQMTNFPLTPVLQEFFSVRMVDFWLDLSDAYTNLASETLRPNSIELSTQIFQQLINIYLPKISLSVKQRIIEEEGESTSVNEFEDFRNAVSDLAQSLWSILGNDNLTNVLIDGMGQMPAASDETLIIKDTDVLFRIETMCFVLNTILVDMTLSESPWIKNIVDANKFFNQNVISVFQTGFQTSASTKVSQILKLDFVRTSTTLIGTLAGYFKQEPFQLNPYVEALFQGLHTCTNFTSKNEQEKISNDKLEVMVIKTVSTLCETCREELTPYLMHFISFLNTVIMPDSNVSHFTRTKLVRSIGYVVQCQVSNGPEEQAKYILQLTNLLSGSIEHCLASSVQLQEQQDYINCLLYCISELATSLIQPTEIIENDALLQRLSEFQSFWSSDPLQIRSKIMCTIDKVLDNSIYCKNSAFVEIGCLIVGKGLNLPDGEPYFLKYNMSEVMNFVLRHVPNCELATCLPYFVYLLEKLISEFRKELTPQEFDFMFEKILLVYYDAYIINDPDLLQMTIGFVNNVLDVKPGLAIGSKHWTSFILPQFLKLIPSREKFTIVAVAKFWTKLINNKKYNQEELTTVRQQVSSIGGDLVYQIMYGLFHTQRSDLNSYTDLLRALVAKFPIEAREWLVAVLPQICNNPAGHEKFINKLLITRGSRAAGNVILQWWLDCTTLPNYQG

| Substance | binding [1] | binding [3] | binding [4] | other results |
| --- | --- | --- | --- | --- |
| Pdr6/Kap122 (S. cerevisiae), full length, tag removed (from UniProt P32767 1-1081) | binds | binds | binds | binding [2]: binds; binding [5]: binds |
| mouse Xpo4 (NTR of the eIF5A mutant tests) (from UniProt Q9ESJ0 1-1151) | no binding (tested: 1 µM NTR and RanGTP, 0.75 µM eIF5A) | no binding (tested: 1 µM NTR and RanGTP, 0.75 µM eIF5A) | no binding (tested: 1 µM NTR and RanGTP, 0.75 µM eIF5A) | binding [6]: binds |
| yeast eIF5A (eIF5A compatibility assay) (S. cerevisiae) | – | – | – | binding [7]: binds |
| S. cerevisiae eIF5A lacking its 15 N-terminal residues, nonmodified form (domain or fragment) | – | – | – | binding [8]: binds |
